Test results reported in doi:10.1101/2024.02.25.581584 (bioRxiv, 2024).
Results are given in words; binding and its absence hold for the method and conditions named.

Amino acid sequences for entries named in this document (tags omitted). A change or cut given only in a name is not applied to a line headed by its entry. Chains listed by the source or under a name are the forms on record and can include a tag or linker.
CENP-T^6D (CENP-T^6D-GFP-Spy-tag) (Q96BT3, form named): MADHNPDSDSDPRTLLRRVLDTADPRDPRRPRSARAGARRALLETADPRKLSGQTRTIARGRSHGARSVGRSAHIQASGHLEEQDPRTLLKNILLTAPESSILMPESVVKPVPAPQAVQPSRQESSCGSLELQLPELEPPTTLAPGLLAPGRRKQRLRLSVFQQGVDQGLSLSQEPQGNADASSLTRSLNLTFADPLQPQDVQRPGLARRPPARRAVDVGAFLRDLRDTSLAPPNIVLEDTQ
UniProt O14777: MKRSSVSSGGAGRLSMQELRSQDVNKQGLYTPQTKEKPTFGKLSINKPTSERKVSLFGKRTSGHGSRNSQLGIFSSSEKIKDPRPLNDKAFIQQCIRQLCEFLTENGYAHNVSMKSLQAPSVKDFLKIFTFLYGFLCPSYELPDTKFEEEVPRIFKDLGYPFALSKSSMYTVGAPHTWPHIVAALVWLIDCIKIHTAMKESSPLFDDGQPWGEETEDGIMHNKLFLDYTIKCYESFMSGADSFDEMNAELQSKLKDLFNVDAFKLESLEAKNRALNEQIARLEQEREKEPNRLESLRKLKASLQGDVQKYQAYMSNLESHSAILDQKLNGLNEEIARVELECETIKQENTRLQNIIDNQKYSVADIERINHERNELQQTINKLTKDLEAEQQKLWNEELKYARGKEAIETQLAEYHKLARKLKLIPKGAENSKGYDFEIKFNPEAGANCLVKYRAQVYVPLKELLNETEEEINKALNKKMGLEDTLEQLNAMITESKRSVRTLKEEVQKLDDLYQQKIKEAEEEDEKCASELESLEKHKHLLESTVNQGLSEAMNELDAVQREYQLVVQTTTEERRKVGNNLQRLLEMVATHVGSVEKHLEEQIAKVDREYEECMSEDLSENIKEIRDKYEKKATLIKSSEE

Biological target: CENP-T^6D (CENP-T^6D-GFP-Spy-tag) (human, UniProt Q96BT3 1-242, T11D | T27D | S47D | T85D | T195D | S201D)
Test: TIRF microscopy of single molecules

## Human Ndc80 ΔSpc24/25 complex (from UniProt O14777 1-506; Q9BZD4 1-348)
  binding: no binding (tested: 200 nM)
